According to publication PMC9455977, “Deciphering the Regulatory Circuits of RA3 Replication Module - Mechanisms of the Copy Number Control”:
Negatives hold for the conditions tested. For at least one entry, the source does not settle the construct or the ends of the probe. At least one verdict was read from the data and is not stated in words by the source. Tags and fusion partners may be left off the protein sequences shown.

Molecular target: T1, RepA (His6-RepA) (UniProt Q209K0)
T1 sequence (looked up): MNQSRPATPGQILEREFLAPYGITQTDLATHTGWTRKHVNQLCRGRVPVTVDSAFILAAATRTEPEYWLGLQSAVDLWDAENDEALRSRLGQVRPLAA
Experiment: EMSA
Settings: 25 mM Tris-HCl pH 8.0, 5 mM MgCl2, 40 mM NaCl, 0.5 mg/mL BSA, 30 min at 37 C, 20 uL, 30 ng PCR fragment (0.8% agarose) or 150 ng ds oligo (10% native PAGE), 0.5x TBE, recombinant protein, residues 1-98, protein details: N-terminal His6, label: none (ethidium bromide stain), probe letters rebuilt from the primers and the genome

“CGGATCCGCGGGCCTGATCTATTGTTGAAGTTTACCAACTAGGTTACACTTCAAAACACATCATTCTGATGAGGGCTTATTACATGAACCAATCACGACCGGCCACACCTGGCCAGATACTTGAAAGGGAATTCTTGGCCCCGTACGGAATCACTCAAACAGACTTGGCCACCCATACCGGATGGACAAGAAAGCACGTTAATCAGCTATGTCGCGGGCGAGTGCCTGTTACAGTCGATAGCGCGTTTATCCTGGCAGCAGCTACACGAACAGAGCCGGAATACTGGCTAGGGCTGCAAAGTGCCGTGGATCTATGGGACGCAGAGAATGACGAGGCGTTGCGTAGTCGTCTAGGACAGGTGAGGCCGTTAGCGGCATAGAAAGCATGCGGATCCG (double strand) [repAp-repA 376 bp PCR fragment]”: binds (binding detected at 25 nM RepA).

“CGGATCCGCGGGCCTGATCTATTGTTGAAGTTTACCAACTAGGTTACACTTCAAAACACATCATTCTGATGAGGGCTTATTACATGAACCAATCACGACCGGCCACACCTGGCCAGATACTTGAAAGGGAATTCTTGGCCCCGTACGGAATCACTCAAACAGACTTGGCCACCCATACCGGATGGACAAGAAAGCACGTTAATCAGCTATGTCGCGGGCGAGTGCCTGTTACAGTCGATAGCGCGTTTATCCTGGCAGCAGCTAGGATCCCG (double strand) [repAp 256 bp PCR fragment]”: binds (WT control).

“GCGGATCCGATAGCTCTTTGCCATTAACGACCTCTTTAAACATGGGGGGGCAGGGGGGGACAGGTGCAATTTTAGCACAAGCGGCGGCAGACGCTAGCAAATTGCGAATCCTGCCCTAGTTCTAACCCCCCCATGTTTTTTCGTACGTACGAAATTTTTCGGTTTTGCAGTGGCTTTTGGCCTTCGGCCAGGCTCACCAGGTCGCGGGGCTCCCTGGCTCGTCGGCTTCCCCTAACTTTGGATTGTGCAATCCAAAAGGCTGCCGCATAATGGTTATAGATTGTGCAATCCAATACACGGAGCAGGGCACTAGATGAAACCAACATTGCAGGCTTACGACGAACTACAGCGGGCATATGATCACTTTAACAACGAGCTGTTTGATGGTGTCCTGCCCGATTGCCTGATCACCCTCCAACGAGAAAAGCATGCGC (double strand) [mobCp 417 bp PCR fragment]”: no binding (no binding up to 5 uM RepA).
